Publication PMC4931341
No constants are given. Whether binding was seen depends on the method and setting. In cells and extracts the contact can be indirect. Some entries that bind do so weakly or less than the wild type.

The chains behind the UniProt entries cited, without tags or fusion partners.
UniProt P31266: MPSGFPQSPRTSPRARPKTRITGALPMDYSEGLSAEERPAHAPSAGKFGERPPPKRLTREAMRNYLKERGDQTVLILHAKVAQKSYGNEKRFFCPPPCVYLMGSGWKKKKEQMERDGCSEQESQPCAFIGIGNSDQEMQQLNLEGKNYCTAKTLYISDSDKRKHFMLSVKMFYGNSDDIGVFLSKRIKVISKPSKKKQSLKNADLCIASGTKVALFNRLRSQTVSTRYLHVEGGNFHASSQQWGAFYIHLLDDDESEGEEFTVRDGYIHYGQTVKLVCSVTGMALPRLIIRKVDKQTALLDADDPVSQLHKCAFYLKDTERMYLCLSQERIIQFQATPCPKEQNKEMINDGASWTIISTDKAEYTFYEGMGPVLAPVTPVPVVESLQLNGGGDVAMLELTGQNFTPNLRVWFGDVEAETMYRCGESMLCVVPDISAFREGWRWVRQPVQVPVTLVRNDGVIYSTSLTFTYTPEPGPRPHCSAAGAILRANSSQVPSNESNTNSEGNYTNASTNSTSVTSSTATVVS
UniProt Q16665: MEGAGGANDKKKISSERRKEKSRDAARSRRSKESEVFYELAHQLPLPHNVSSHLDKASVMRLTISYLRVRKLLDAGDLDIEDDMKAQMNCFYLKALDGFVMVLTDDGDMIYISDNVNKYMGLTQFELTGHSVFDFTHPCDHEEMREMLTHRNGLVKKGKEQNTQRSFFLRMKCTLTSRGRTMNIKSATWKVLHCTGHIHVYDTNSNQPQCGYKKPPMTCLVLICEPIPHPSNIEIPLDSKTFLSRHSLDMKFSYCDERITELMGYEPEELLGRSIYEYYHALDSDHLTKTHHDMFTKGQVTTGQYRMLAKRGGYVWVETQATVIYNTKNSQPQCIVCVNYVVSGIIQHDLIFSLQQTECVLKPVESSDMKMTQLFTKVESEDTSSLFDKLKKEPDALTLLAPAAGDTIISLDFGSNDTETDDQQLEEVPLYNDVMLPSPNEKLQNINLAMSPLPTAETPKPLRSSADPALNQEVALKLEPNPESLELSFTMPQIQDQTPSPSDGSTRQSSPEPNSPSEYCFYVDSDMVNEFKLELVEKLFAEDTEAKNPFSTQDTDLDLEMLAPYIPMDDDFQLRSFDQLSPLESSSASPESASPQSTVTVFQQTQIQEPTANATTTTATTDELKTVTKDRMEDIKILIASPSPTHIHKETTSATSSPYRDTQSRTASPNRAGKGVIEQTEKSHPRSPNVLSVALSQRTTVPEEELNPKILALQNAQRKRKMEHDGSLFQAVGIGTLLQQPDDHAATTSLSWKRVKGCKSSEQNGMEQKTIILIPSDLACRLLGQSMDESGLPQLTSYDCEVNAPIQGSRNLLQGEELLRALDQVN
UniProt Q99814: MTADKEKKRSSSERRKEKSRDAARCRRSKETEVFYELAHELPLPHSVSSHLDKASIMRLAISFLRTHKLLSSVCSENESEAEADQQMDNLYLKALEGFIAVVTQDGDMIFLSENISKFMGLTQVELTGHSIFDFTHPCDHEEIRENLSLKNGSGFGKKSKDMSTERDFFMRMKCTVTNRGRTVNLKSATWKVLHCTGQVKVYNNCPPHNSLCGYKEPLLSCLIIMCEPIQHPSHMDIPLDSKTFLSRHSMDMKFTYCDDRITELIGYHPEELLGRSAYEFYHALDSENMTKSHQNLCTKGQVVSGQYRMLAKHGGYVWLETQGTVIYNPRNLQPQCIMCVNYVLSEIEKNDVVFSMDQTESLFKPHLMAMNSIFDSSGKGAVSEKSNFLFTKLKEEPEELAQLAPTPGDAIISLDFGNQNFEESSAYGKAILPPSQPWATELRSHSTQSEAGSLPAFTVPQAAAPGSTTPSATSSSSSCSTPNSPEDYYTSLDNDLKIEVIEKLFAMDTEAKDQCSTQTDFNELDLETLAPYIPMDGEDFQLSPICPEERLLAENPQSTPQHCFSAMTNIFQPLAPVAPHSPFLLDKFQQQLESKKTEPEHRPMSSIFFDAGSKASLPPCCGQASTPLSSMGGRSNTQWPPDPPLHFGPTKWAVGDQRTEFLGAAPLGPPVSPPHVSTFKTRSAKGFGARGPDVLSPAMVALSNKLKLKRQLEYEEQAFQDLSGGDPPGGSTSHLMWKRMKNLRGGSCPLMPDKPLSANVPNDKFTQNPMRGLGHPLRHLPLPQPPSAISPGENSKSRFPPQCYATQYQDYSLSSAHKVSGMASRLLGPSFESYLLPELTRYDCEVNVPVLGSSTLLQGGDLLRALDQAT
UniProt P97481: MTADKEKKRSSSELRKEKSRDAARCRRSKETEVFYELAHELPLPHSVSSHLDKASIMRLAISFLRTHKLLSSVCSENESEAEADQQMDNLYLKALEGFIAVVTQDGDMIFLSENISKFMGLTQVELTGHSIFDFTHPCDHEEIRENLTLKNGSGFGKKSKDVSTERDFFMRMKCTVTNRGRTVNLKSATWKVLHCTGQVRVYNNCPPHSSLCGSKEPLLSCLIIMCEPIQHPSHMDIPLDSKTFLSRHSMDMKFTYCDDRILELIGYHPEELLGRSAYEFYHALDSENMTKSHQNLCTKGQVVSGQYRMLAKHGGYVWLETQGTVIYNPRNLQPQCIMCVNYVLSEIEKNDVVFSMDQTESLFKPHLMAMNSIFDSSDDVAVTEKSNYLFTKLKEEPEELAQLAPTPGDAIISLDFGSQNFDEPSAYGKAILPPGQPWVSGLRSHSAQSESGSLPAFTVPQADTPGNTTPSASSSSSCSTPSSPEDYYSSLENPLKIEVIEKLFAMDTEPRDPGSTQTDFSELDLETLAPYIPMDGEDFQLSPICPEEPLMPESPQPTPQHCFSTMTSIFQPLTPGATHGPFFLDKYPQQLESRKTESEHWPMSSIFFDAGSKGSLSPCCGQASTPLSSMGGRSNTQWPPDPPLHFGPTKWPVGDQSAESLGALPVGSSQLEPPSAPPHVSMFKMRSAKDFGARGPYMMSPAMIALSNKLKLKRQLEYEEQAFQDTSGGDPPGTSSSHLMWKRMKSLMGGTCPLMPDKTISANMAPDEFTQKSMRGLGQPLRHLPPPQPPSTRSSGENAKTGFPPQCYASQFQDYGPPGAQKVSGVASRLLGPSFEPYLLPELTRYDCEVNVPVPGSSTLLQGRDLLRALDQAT

Tests used:
[1] = target: eGFP-tagged RBPJ (recombination signal binding protein for immunoglobulin kappa J region) (UniProt P31266); assay: co-IP; HEK 293 T cells transfected with RBPJ-GFP (mCherry as negative control), hypoxia (2% O2) overnight; lysis in PBS with 0.5% Triton-X 100; anti-GFP antibody on protein A/G-agarose, 1 h at 4C, 3 washes; western blot for RBPJ, HIF-1 alpha and HIF-2 alpha
[2] = target: RBPJ, endogenous in mouse adult cardiomyocytes (mouse (endogenous in isolated adult cardiomyocytes)) (UniProt P31266); assay: proximity ligation; in situ PLA (Duolink) on isolated mouse ACM fixed in cold methanol, cultured 14 h under hypoxia (1% O2) or normoxia (21% O2); RBPJ antibody probe PLUS, HIF-1 alpha or HIF-2 alpha antibody probe MINUS; cKO ACM as negative control

Substance	binding [1]	binding [2]
HIF1α (hypoxia-inducible factor 1 alpha), endogenous in HEK 293 T (from UniProt Q16665 1-826)	binds	–
HIF2α (hypoxia-inducible factor 2 alpha), endogenous in HEK 293 T (from UniProt Q99814 1-870)	binds	–
HIF2α, endogenous in mouse adult cardiomyocytes (from UniProt P97481 1-874)	–	binds
